# Results as given in article PMC12663137 (Nature Communications, 2025).
# Protein sequences, listed by entry. Tags and fused reporters are not part of them.
# UniProt Q7L0J3, whole entry C297A: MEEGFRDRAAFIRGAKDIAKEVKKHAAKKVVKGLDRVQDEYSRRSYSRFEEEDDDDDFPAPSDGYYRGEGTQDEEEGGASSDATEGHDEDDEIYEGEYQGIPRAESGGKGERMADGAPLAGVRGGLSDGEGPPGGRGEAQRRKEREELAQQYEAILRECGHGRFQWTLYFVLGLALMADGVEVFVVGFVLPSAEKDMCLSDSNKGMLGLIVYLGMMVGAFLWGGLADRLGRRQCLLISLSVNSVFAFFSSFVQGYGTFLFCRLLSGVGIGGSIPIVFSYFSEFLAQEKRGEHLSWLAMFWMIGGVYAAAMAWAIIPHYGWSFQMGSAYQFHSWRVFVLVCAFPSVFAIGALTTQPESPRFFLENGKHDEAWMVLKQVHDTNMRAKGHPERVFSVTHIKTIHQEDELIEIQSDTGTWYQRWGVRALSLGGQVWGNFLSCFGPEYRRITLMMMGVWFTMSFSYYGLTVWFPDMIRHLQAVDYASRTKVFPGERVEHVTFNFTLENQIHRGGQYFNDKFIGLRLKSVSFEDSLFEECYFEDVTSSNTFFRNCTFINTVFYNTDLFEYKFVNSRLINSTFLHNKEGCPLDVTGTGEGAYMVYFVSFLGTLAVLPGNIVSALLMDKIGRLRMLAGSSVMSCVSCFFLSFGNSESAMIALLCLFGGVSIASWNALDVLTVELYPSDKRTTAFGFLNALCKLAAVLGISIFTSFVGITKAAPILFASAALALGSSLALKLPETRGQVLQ
# UniProt Q7L0J3, whole entry D670A: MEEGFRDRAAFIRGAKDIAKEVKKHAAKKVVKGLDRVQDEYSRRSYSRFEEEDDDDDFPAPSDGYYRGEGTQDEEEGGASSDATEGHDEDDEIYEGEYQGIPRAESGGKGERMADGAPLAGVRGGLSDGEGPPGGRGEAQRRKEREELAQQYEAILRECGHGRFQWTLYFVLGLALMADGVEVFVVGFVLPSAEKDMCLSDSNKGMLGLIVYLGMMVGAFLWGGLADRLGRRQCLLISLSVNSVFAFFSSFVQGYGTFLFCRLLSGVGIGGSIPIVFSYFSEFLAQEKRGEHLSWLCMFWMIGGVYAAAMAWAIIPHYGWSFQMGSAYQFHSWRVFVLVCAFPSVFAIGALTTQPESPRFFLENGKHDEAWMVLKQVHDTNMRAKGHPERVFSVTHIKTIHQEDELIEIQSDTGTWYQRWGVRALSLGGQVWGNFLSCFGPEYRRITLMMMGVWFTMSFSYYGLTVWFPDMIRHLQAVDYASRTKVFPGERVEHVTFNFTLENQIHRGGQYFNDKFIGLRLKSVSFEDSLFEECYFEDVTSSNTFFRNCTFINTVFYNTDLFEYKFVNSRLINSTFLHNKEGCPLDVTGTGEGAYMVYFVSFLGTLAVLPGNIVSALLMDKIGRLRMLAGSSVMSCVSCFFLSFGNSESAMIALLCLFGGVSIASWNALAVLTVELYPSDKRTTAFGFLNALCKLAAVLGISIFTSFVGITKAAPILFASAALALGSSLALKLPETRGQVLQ
# UniProt Q7L0J3, whole entry W666A: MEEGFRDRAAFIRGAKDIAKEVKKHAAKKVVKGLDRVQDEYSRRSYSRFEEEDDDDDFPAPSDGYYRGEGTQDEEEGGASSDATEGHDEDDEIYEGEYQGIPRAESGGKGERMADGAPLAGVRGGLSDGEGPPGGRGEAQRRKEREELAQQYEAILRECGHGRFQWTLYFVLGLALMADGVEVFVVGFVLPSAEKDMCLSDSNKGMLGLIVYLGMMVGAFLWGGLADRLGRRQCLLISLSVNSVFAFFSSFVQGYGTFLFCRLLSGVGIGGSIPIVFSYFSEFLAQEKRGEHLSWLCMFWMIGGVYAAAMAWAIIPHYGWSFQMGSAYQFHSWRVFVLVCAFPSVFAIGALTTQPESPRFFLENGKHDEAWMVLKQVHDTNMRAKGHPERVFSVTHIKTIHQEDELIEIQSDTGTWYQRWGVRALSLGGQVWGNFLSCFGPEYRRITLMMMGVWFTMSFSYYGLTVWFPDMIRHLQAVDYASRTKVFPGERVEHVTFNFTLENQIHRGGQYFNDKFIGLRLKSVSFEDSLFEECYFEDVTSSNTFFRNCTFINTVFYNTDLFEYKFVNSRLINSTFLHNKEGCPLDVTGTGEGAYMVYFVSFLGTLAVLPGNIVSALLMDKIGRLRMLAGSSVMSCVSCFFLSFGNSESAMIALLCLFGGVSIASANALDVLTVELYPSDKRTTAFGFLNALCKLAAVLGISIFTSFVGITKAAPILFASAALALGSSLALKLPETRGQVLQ
# Legend:
# Test in all cases: 3H-UCB-J (10 nM) binding, effect of mutations (Fig. 3B)
# SV2A WT and mutants [1] = target: SV2A WT and mutants (Homo sapiens, UniProt Q7L0J3, C297A); conditions: C297A, wild-type defined as 100%, tested as the radiolabelled form
# SV2A WT and mutants [2] = target: SV2A WT and mutants (Homo sapiens, UniProt Q7L0J3, W666A); conditions: W666A, wild-type defined as 100%, tested as the radiolabelled form
# SV2A WT and mutants [3] = target: SV2A WT and mutants (Homo sapiens, UniProt Q7L0J3, D670A); conditions: D670A, wild-type defined as 100%, tested as the radiolabelled form
smiles,measurement,setting,value
Cc1cnccc1CN1C[C@@H](c2cc(F)c(F)c(F)c2)CC1=O [UCB-J],3H-UCB-J Binding (%),SV2A WT and mutants [1],"15.08, 7.79, 6.97, 14.26, 18.50, 20.66%"
same,3H-UCB-J Binding (%),SV2A WT and mutants [2],"2.68, 6.94, 9.40, 13.23, 6.91, 10.49%"
same,3H-UCB-J Binding (%),SV2A WT and mutants [3],"4.97, 15.30, 20.47, 20.28, 12.73, 24.16%"

# Certain results were filed several times, with different values. This is not the full list of results. An entry can have further records. The values listed for one entry read as repeated measurements on other runs, samples or individuals; a mean can stand among them.
